Experiment in all cases: protein microarray (ProtoArray v5.0), streptavidin-Alexa Fluor 647
Common to all, as to settings: 3'-biotin; 20 mM Tris (pH 7.5), 5 mM MgCl2, 100 mM KCl, 0.1% Tween-20, A/T-rich and random oligonucleotide blockers; temperature not stated; high values mean tight binding

Test [1] deals with C9orf62 (human).
Test [2] concerns C9orf64 (human).
Test [3] relates to C9orf71 (human).
Test [4] relates to C9orf80 (human).
The test system of test [5] is C9orf95 (human).
The test system of test [6] is C9orf97 (human).
For test [7], the system named is CA5B (human).
Test [8] deals with CA9 (UniProt Q16790).
Test [9] deals with CAB39 (human).
The test system of test [10] is CABC1 (human).

The other results are listed elsewhere or left out. For some of these results: Construct or isoform of the protein are uncertain.

For the sequence “GGGAGGCTGAGGCAGG [G4-1 biotinylated (PQS2)]”, the binding signal in test [1] was -0.292 z-score; in test [2], -0.314 z-score; in test [3], -0.32 z-score; in test [4], -0.312 z-score; in test [5], -0.343 z-score; in test [6], -0.289 z-score. Moreover, the binding signal is -0.253 z-score in [7], -0.354 z-score in test [8], -0.346 z-score in test [9] and -0.283 z-score in test [10].
